# According to the supplement of paper PMC4604168 (melanoma cell lines):
# The list shows a part of the results. Single values are uncertain, as repeats are few or missing.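 Imaging used 1,536-well plates; nuclei positive for cleaved PARP by antibody were divided by total DNA-stained nuclei to yield the apoptosis fraction. Doses for screening kept most cells viable, and cell lines differ markedly in resting and induced cleaved-PARP levels.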
# Tested on: MZ2-MEL
# Test: cleaved PARP positive nuclei fraction relative to DMSO control; melanoma cells; higher = more apoptosis
# Conditions: library dose: low library concentration; 72 h
row,Structure (SMILES),cleaved PARP positive nuclei fraction [%]
1,"Cc1cc(Nc2cc(N3CCN(C)CC3)nc(Sc3ccc(NC(=O)C4CC4)cc3)n2)n[nH]1 [Tozasertib] + O=C(O)[C@@H]1[O][Sb](=[O])([O][Sb]2(=[O])[O][C@H]([C@H](O)CO)[C@H](O)[C@H](C(=O)O)[O]2)[O][C@H]([C@H](O)CO)[C@@H]1O [stibogluconate] (first compound 0.006 µM, partner dose 2 µM)",64.8
2,"O=C(/C=C/c1cccnc1)NCCCCC1CCN(C(=O)c2ccccc2)CC1 + Nc1ccn([C@@H]2O[C@H](CO)[C@@H](O)C2(F)F)c(=O)n1 [gemcitabine] (first compound 0.01 µM, partner dose 0.0004 µM)",400
3,"O=C(/C=C/c1cccnc1)NCCCCC1CCN(C(=O)c2ccccc2)CC1 + O=C(O)c1ccc2c(c1)nc(Nc1cccc(Cl)c1)c1ccncc12 [CX4945] (first compound 0.01 µM, partner dose 0.4 µM)",730
4,"O=C(/C=C/c1cccnc1)NCCCCC1CCN(C(=O)c2ccccc2)CC1 + Cc1ccc(Nc2nccc(N(C)c3ccc4c(C)n(C)nc4c3)n2)cc1S(N)(=O)=O [Pazopanib] (first compound 0.01 µM, partner dose 0.4 µM)",660
5,"Cc1cc(Nc2cc(N3CCN(C)CC3)nc(Sc3ccc(NC(=O)C4CC4)cc3)n2)n[nH]1 [Tozasertib] + CC(C)C[C@H](NC(=O)[C@H](Cc1ccccc1)NC(=O)c1cnccn1)B(O)O [Bortezomib] (first compound 0.006 µM, partner dose 0.001 µM)",87
6,"Cc1ccc(Nc2nccc(N(C)c3ccc4c(C)n(C)nc4c3)n2)cc1S(N)(=O)=O [Pazopanib] + Cn1c(=O)n(-c2ccc(C(C)(C)C#N)cc2)c2c3cc(-c4cnc5ccccc5c4)ccc3ncc21 [NVP-BEZ235] (first compound 0.4 µM, partner dose 0.004 µM)",27.7
7,"Cc1cc(Nc2cc(N3CCN(C)CC3)nc(Sc3ccc(NC(=O)C4CC4)cc3)n2)n[nH]1 [Tozasertib] + CS(=O)(=O)CCNCc1ccc(-c2ccc3ncnc(Nc4ccc(OCc5cccc(F)c5)c(Cl)c4)c3c2)o1 [lapatinib] (first compound 0.006 µM, partner dose 0.8 µM)",51.1
8,"Cc1ccc(Nc2nccc(N(C)c3ccc4c(C)n(C)nc4c3)n2)cc1S(N)(=O)=O [Pazopanib] + Nc1nc(F)nc2c1ncn2[C@@H]1O[C@H](CO)[C@@H](O)[C@@H]1O [fludarabine] (first compound 0.4 µM, partner dose 0.2 µM)",57
9,"N#CC[C@H](C1CCCC1)n1cc(-c2ncnc3[nH]ccc23)cn1 [ruxolitinib] + CC(=O)c1c(C)c2cnc(Nc3ccc(N4CCNCC4)cn3)nc2n(C2CCCC2)c1=O [palbociclib] (first compound 1 µM, partner dose 0.04 µM)",129
10,"O=C(Nc1cc(C(F)(F)F)cc(C(F)(F)F)c1)c1cc(Cl)ccc1O + Nc1nc(F)nc2c1ncn2[C@@H]1O[C@H](CO)[C@@H](O)[C@@H]1O [fludarabine] (first compound 0.016 µM, partner dose 0.2 µM)",89.7
11,"O=C(Nc1cc(C(F)(F)F)cc(C(F)(F)F)c1)c1cc(Cl)ccc1O + O=C(/C=C/c1cccnc1)NCCCCC1CCN(C(=O)c2ccccc2)CC1 [FK866] (first compound 0.016 µM, partner dose 0.01 µM)",149

# Tested on: MeWo
# Test: as above
# Conditions: library dose: low library concentration; 72 h
row,Structure (SMILES),cleaved PARP positive nuclei fraction [%]
1,"N#CC[C@H](C1CCCC1)n1cc(-c2ncnc3[nH]ccc23)cn1 [ruxolitinib] + C=CCNC1=C2C[C@@H](C)C[C@H](OC)[C@H](O)[C@@H](C)/C=C(\C)[C@H](OC(N)=O)[C@@H](OC)/C=C\C=C(/C)C(=O)NC(=CC1=O)C2=O [Tanespimycin] (first compound 1 µM, partner dose 0.002 µM)",92
2,"Cc1cn(-c2cc(NC(=O)c3ccc(C)c(Nc4nccc(-c5cccnc5)n4)c3)cc(C(F)(F)F)c2)cn1 [nilotinib] + COCC[n+]1c2c(n(Cc3cnccn3)c1C)C(=O)c1ccccc1C2=O [YM155] (first compound 0.2 µM, partner dose 0.0004 µM)",29.7
3,"Cc1cn(-c2cc(NC(=O)c3ccc(C)c(Nc4nccc(-c5cccnc5)n4)c3)cc(C(F)(F)F)c2)cn1 [nilotinib] + CCN(CC)CCNC(=O)c1c(C)[nH]c(/C=C2\C(=O)Nc3ccc(F)cc32)c1C [sunitinib] (first compound 0.2 µM, partner dose 0.4 µM)",87.6
4,"COc1cc([C@@H]2c3cc4c(cc3[C@@H](O[C@@H]3O[C@@H]5CO[C@@H](C)O[C@H]5[C@H](O)[C@H]3O)[C@H]3COC(=O)[C@H]23)OCO4)cc(OC)c1O [etoposide] + CNC(=O)c1cc(Oc2ccc(NC(=O)Nc3ccc(Cl)c(C(F)(F)F)c3)cc2)ccn1 [sorafenib] (first compound 0.02 µM, partner dose 0.4 µM)",86.5
5,"Cc1cc(Nc2cc(N3CCN(C)CC3)nc(Sc3ccc(NC(=O)C4CC4)cc3)n2)n[nH]1 [Tozasertib] + CN1CCN(c2ccc3nc(-c4c(N)c5c(F)cccc5[nH]c4=O)[nH]c3c2)CC1 [Dovitinib] (first compound 0.006 µM, partner dose 0.1 µM)",42.6
6,"COc1cc([C@@H]2c3cc4c(cc3[C@@H](O[C@@H]3O[C@@H]5CO[C@@H](C)O[C@H]5[C@H](O)[C@H]3O)[C@H]3COC(=O)[C@H]23)OCO4)cc(OC)c1O [etoposide] + Nc1cccc2c1CN(C1CCC(=O)NC1=O)C2=O [lenalidomide] (first compound 0.02 µM, partner dose 1 µM)",138
7,"CC[C@]1(O)C[C@H]2CN(CCc3c([nH]c4ccccc34)[C@@](C(=O)OC)(c3cc4c(cc3OC)N(C=O)[C@H]3[C@@](O)(C(=O)OC)[C@H](OC(C)=O)[C@]5(CC)C=CCN6CC[C@]43[C@@H]65)C2)C1 [vincristine] + Cc1cn(-c2cc(NC(=O)c3ccc(C)c(Nc4nccc(-c5cccnc5)n4)c3)cc(C(F)(F)F)c2)cn1 [nilotinib] (first compound 0.0001 µM, partner dose 0.2 µM)",153
8,"N#CC[C@H](C1CCCC1)n1cc(-c2ncnc3[nH]ccc23)cn1 [ruxolitinib] + Nc1cccc2c1CN(C1CCC(=O)NC1=O)C2=O [lenalidomide] (first compound 1 µM, partner dose 1 µM)",11.2
9,"N#CC[C@H](C1CCCC1)n1cc(-c2ncnc3[nH]ccc23)cn1 [ruxolitinib] + COCC[n+]1c2c(n(Cc3cnccn3)c1C)C(=O)c1ccccc1C2=O [YM155] (first compound 1 µM, partner dose 0.0004 µM)",298
10,"CCCCCCCCCCCCCCCCCCOP(=O)([O-])OC1CC[N+](C)(C)CC1 [Perifosine] + O=C(O)[C@@H]1[O][Sb](=[O])([O][Sb]2(=[O])[O][C@H]([C@H](O)CO)[C@H](O)[C@H](C(=O)O)[O]2)[O][C@H]([C@H](O)CO)[C@@H]1O [stibogluconate] (first compound 0.4 µM, partner dose 2 µM)",41.9
11,"O=c1[nH]nc(Sc2ncc([N+](=O)[O-])s2)n1-c1ccc2c(c1)OCCO2 + Nc1ncn([C@H]2C[C@H](O)[C@@H](CO)O2)c(=O)n1 [decitabine] (first compound 0.2 µM, partner dose 0.1 µM)",91.7
12,"O=C(Nc1cc(C(F)(F)F)cc(C(F)(F)F)c1)c1cc(Cl)ccc1O + CC(C)C[C@H](NC(=O)[C@H](Cc1ccccc1)NC(=O)c1cnccn1)B(O)O [Bortezomib] (first compound 0.016 µM, partner dose 0.001 µM)",133
13,"N#CC[C@H](C1CCCC1)n1cc(-c2ncnc3[nH]ccc23)cn1 [ruxolitinib] + C[C@]1(O)C[C@@H](c2nc(-c3ccc4ccc(-c5ccccc5)nc4c3)c3c(N)nccn32)C1 [OSI906] (first compound 1 µM, partner dose 0.4 µM)",225
14,"Cc1cc(Nc2cc(N3CCN(C)CC3)nc(Sc3ccc(NC(=O)C4CC4)cc3)n2)n[nH]1 [Tozasertib] + CNC(=O)c1cc(Oc2ccc(NC(=O)Nc3ccc(Cl)c(C(F)(F)F)c3)cc2)ccn1 [sorafenib] (first compound 0.006 µM, partner dose 0.4 µM)",132
15,"Cc1ccc(Nc2nccc(N(C)c3ccc4c(C)n(C)nc4c3)n2)cc1S(N)(=O)=O [Pazopanib] + CN1CCN(c2ccc3nc(-c4c(N)c5c(F)cccc5[nH]c4=O)[nH]c3c2)CC1 [Dovitinib] (first compound 0.4 µM, partner dose 0.1 µM)",52.4
16,"Cc1cn(-c2cc(NC(=O)c3ccc(C)c(Nc4nccc(-c5cccnc5)n4)c3)cc(C(F)(F)F)c2)cn1 [nilotinib] + Cn1c(=O)n(-c2ccc(C(C)(C)C#N)cc2)c2c3cc(-c4cnc5ccccc5c4)ccc3ncc21 [NVP-BEZ235] (first compound 0.2 µM, partner dose 0.004 µM)",24.5
17,"O=c1[nH]nc(Sc2ncc([N+](=O)[O-])s2)n1-c1ccc2c(c1)OCCO2 + C=CCNC1=C2C[C@@H](C)C[C@H](OC)[C@H](O)[C@@H](C)/C=C(\C)[C@H](OC(N)=O)[C@@H](OC)/C=C\C=C(/C)C(=O)NC(=CC1=O)C2=O [Tanespimycin] (first compound 0.2 µM, partner dose 0.002 µM)",134

# Shown as tab-separated lines: part of the list above.
row	Structure (SMILES)	cleaved PARP positive nuclei fraction [%]
6	COc1cc([C@@H]2c3cc4c(cc3[C@@H](O[C@@H]3O[C@@H]5CO[C@@H](C)O[C@H]5[C@H](O)[C@H]3O)[C@H]3COC(=O)[C@H]23)OCO4)cc(OC)c1O [etoposide] + Nc1cccc2c1CN(C1CCC(=O)NC1=O)C2=O [lenalidomide] (first compound 0.02 µM, partner dose 1 µM)	138
7	CC[C@]1(O)C[C@H]2CN(CCc3c([nH]c4ccccc34)[C@@](C(=O)OC)(c3cc4c(cc3OC)N(C=O)[C@H]3[C@@](O)(C(=O)OC)[C@H](OC(C)=O)[C@]5(CC)C=CCN6CC[C@]43[C@@H]65)C2)C1 [vincristine] + Cc1cn(-c2cc(NC(=O)c3ccc(C)c(Nc4nccc(-c5cccnc5)n4)c3)cc(C(F)(F)F)c2)cn1 [nilotinib] (first compound 0.0001 µM, partner dose 0.2 µM)	153
